# Laboratory results: patent publication US20200331998A1
# Positions count from the first letter of the chain named. These are yes or no findings as the source states them, for the method shown. Binding calls can cover weak binding; strength is not graded here.
# B1: E2153.2H8.A8 (antibody, V domains shown)
# VH: QVQLQQSGAELVKPGASVKVSCKAFGYTFTTYPIEWMRQNHGKSLEWIGNFHPYNDDTRYNEKFKDKAKLTVEKSSSTVYLELSRLTYDDSAVYYCTRGNDYDLYGMDYWGQGTSVTVSS
# VL: DIKMTQSPSSMYASLGERVTITCKASQDINTYLTWFQQKPGKSPKTLIYRANRLVDGVPSRFSGSGSGQDYSLTISSLEYEDMGIYYCLQCDDFPLTFGAGTKLELKR
# B2: E2153.1C4.E2 (antibody, V domains shown)
# VH: B1 VH
# VL: DIKMTQFPSSMYASLGERVTITCKASQDINTYLTWFQQKPGKSPKTLIYRANRLVDGVPSRFSGSGSGQDYSLTISSLEYEDMGIYYCLQCDDFPLTFGAGTKLELK
# B3: E2153.1D9.B4 (antibody, V domains shown)
# VH: QVQLQQSGAELVRPGTSVKVSCKASGYAFTNYLIEWIKQRPGQGLEWIGVINPGSGGINYNEKFKGKATLTSDKSSSTAYMQLSSLTSDDSAVYFCARWLDYDWFAYWGQGTLVTVSA
# VL: B2 VL with L15V, T31S, T34S, D93E, L96F, A100G, L106I
# B4: E2153.4D7.E11 (antibody, V domains shown)
# VH: B3 VH with I37V, N52T, I58S, S72A
# VL: B2 VL with F7S, T31S, T34S, L89R, D93E, L96S, A100G, L106I
# Biological target: CAR with an scFv derived from humanized 4G7 (h4G7.7)
# Test: flow cytometry on primary human T cells expressing the h4G7.7 CAR (row H4G7.7-R2)
row,binding,Binder
1,binds,B1
2,binds,B2
3,binds,B3
4,binds,B4
